The values that follow come from publication PMC4605517, “A High Affinity hRpn2-Derived Peptide That Displaces Human Rpn13 from Proteasome in 293T Cells” (PLoS ONE, 2015).

By UniProt entry, the sequences of proteins in these tests, tags left out.
UniProt Q16186: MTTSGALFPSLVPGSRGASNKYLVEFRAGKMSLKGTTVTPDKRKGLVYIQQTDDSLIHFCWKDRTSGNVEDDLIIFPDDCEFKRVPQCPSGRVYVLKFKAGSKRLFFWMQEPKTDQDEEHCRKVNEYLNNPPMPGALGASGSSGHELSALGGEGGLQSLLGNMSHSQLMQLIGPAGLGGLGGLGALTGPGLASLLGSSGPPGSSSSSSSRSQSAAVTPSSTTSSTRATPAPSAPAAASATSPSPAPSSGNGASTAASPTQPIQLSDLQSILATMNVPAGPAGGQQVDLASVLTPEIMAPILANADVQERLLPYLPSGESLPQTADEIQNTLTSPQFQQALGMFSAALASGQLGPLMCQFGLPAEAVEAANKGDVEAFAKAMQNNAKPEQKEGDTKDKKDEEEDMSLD

The assay concerns the target endogenous hRpt3 (human (endogenous in 293T)) (UniProt P43686). Kind of assay: co-IP; 293T lysates (untransfected, or expressing FLAG-hRpn2 (916-953) WT or F948Stop); anti-hRpt3 immunoprecipitation; blots for hRpn13, hRpt3, hRpn2.

These are yes or no findings as the source states them, for the method shown. Binding seen in cells or lysates may run through a third protein. Some binding calls cover weakened binding; strength is not graded here.

On to “endogenous hRpn13 (from UniProt Q16186 1-407)”, for which the binding result is on record as “binds”.
